From patent US5217956A, “Composition and treatment with biologically active peptides and certain anions” (priority 1991, dated 1993)
Read-outs that look alike come from different tables or passages of the source. Not every detail of the peptide structures is certain; ends, links or a residue may be inferred. No end group written: not given here.

Tests used:
Enterobacter cloacae = format: cell-based
Procedure: (§1) Approximately 1,000 bacteria were seeded into about 200 ul of trypticase soy broth. Either magainin 2 carboxy terminal amide, PGLa, or ALSKALSK ALSKALSKALSKALSK (Z-44) were added in increasing concentrations in the absence (Panel A) or presence (Panel B) of 50 mM NaF.

Pseudomonas aeruginosa = test: Minimal inhibitory concentration in trypticase soy broth versus Pseudomonas aeruginosa; format: cell-based
Procedure: as §1

| Substance | MINIMAL INHIBITORY CONCENTRATION (Enterobacter cloacae; Panel B: +50 mM NaF) [µg/mL] | MINIMAL INHIBITORY CONCENTRATION (Pseudomonas aeruginosa; Panel A: absence of NaF) [µg/mL] | MINIMAL INHIBITORY CONCENTRATION (Pseudomonas aeruginosa; Panel B: +50 mM NaF) [µg/mL] | MINIMAL INHIBITORY CONCENTRATION (Enterobacter cloacae; Panel A: absence of NaF) [µg/mL] |
| --- | --- | --- | --- | --- |
| ALSKALSKALSKALSKALSKALSK [Peptide Z-44, ALSKALSK ALSKALSKALSKALSK] | 30 to 60 | 30 to 60 | 6 to 15 | – |
| GMASKAGAIAGKIAKVALKAL-NH2 [PGLa] | 60 to 125 | > 500 | 60 to 125 | 250 to 500 |
